{
  "source": "PubChem BioAssay AID1688",
  "about": "(National Center for Advancing Translational Sciences (NCATS), 2009)",
  "note": "The whole screen tested about 220,000 compounds, of which about 2,400 (1.1%) were called active. Inconclusive results, whose numbers are uncertain, are shown with a selection of clear calls. Calls follow the shape of the dose curve; as a rule, active = well fitted inhibition curve with a large enough effect; inconclusive = small, poorly fitted or top-dose-only effect, or effect the other way; inactive = no such curve, though single readings can be large or run the other way. Where the call is inconclusive, the potency comes from a doubtful curve fit. % is scaled to controls: 0 for no effect and ±100 for the full control effect; potency is read from the fitted curve at half-maximal effect.",
  "data": [
    {"assay": "qHTS Multiplex Assay to Identify Dual Action Probes in a Cell Model of Huntington: Aggregate Formation (GFP); also: nearly all actives have a fitted effect of over 60% in size", "conditions": "PC12 HttQ103-GFP aggregates, Acumen cytometry, 40 h; activity change, negative = inhibition: at 46.1 µM (top of the series) unless noted", "method_in_brief": "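Inducible Q103 Huntingtin exon 1–GFP PC12 line, 1500 cells/well in phenol red free DMEM with 5% equine and 5% calf serum. Tebufenozide 100 nM induced expression; compounds titrated; aggregates quantified by cytometry.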", "values": [
      {"smiles": "Cc1cccc(C)c1NC(=S)/C(=C(\\[O-])c1cccs1)[n+]1ccccc1", "activity change, negative = inhibition": "inactive: -2.89%"},
      {"smiles": "c1ccc2c(CCNc3ncnc4nc[nH]c34)cccc2c1", "Potency": "inconclusive: 15.8 µM [inhibitor, single point]"},
      {"smiles": "CC(C)(CCl)C(=O)Nc1ccc(C(F)(F)F)cc1", "Potency": "inconclusive: 5.62 µM [inhibitor, single point]"},
      {"smiles": "COCCNC(=O)/C(C#N)=C1\\N=C(N)c2ccccc21", "Potency": "inconclusive: 12.6 µM [inhibitor, single point]"},
      {"smiles": "Cc1ccccc1NC(=O)Cn1cccc1", "activity change, negative = inhibition": "inactive: 6.26%"},
      {"smiles": "COc1ccc(/C=N/S(=O)(=O)c2cccs2)cc1", "Potency": "inconclusive: 15.8 µM [activator, partial curve]"},
      {"smiles": "COc1ccc(NC(=O)c2ccc3nccnc3c2)cc1", "activity change, negative = inhibition": "inactive: 1.56%"},
      {"smiles": "O=C(CSc1ccc(-c2cccs2)nn1)N1CCCCC1", "activity change, negative = inhibition": "inactive: 8.29%"},
      {"smiles": "COc1ccc(S(=O)(=O)N(Cc2cccs2)C2CCCC2)cc1", "Potency": "inconclusive: 31.6 µM [inhibitor, single point]"},
      {"smiles": "Cn1c(=O)c2c(nc(NCCOc3ccc(C(C)(C)C)cc3)n2C)n(C)c1=O", "Potency": "inconclusive: 7.08 µM [inhibitor, partial curve]"},
      {"smiles": "CC12CCC(C(=O)N(CCC#N)CCC#N)(CC1=O)C2(C)C", "note": "(centres undefined)", "Potency": "inconclusive: 3.98 µM [inhibitor, partial curve]"},
      {"smiles": "CCn1c(SCC(=O)Nc2cc(C)on2)nnc1-c1ccc(S(=O)(=O)N2CCCC2)cc1", "activity change, negative = inhibition": "inactive: -17.6%"},
      {"smiles": "CCN(C(=O)CSc1nnc(-c2cccs2)o1)C1CCS(=O)(=O)C1", "note": "(centres undefined)", "Potency": "inconclusive: 6.31 µM [activator, single point]"},
      {"smiles": "O=C(N/N=C/c1sc(N2CCOCC2)nc1-c1ccccc1)c1cccc(S(=O)(=O)N2CCCC2)c1", "Potency": "inconclusive: 12.6 µM [inhibitor, single point]"},
      {"smiles": "CCOC(=O)c1ccc(N2C(=O)CC(N3CC(C)OC(C)C3)C2=O)cc1", "note": "(centres undefined)", "Potency": "inconclusive: 1 µM [activator, partial curve]"},
      {"smiles": "COc1ccc(N2CC(C(=O)N/N=C/c3cc([N+](=O)[O-])ccc3O)CC2=O)cc1", "note": "(centres undefined)", "Potency": "inconclusive: 10 µM [inhibitor, partial curve]"},
      {"smiles": "O=C(N/N=C/C=C/c1ccco1)c1ccncc1", "activity change, negative = inhibition": "inactive: -0.669% [at 9.22 µM]"},
      {"smiles": "COc1ccc(/C=[N+](\\[O-])C2N(c3ccccc3)C(=S)SC2(C)C)cc1OC", "note": "(centres undefined)", "activity change, negative = inhibition": "inactive: 0.629% [at 9.22 µM]"},
      {"smiles": "CCOC(=O)/C=C1\\CC(=O)Nc2cc(C)c(C)cc2N1", "activity change, negative = inhibition": "inactive: 2.24%"},
      {"smiles": "CCCn1c(CNc2ccc(Br)cc2)nc2ccccc21", "Potency": "active: 11.2 µM"},
      {"smiles": "O=C(NC1CCCCC1)C(c1ccc(F)cc1)N(CCN1CCOCC1)C(=O)c1ccc(-c2ccccc2)[nH]1", "note": "(centres undefined)", "Potency": "inconclusive: 2.51 µM [inhibitor, single point]"},
      {"smiles": "COc1ccc(C(CNC(=O)COc2ccc(F)cc2Br)N2CCCC2)cc1", "note": "(centres undefined)", "Potency": "inconclusive: 15.8 µM [inhibitor, single point]"},
      {"smiles": "CC1(C)CC(=O)c2cc(C(=O)NCc3ccco3)c(=O)n(-c3ccc(Cl)cc3)c2C1", "Potency": "inconclusive: 35.5 µM [inhibitor, single point]"},
      {"smiles": "COc1ccccc1N1CCN(CC(=O)Nc2ccc(C)c(F)c2)CC1", "Potency": "inconclusive: 35.5 µM [inhibitor, single point]"},
      {"smiles": "Cc1c(C(=O)NCCN2C(=O)S/C(=C\\c3cccs3)C2=O)cccc1[N+](=O)[O-]", "Potency": "inconclusive: 2.24 µM [activator, partial curve]"},
      {"smiles": "CC(=O)N1CCCc2cc(S(=O)(=O)NC(C(=O)NC3CCCCC3)C(C)C)ccc21", "note": "(centres undefined)", "activity change, negative = inhibition": "inactive: -11%"},
      {"smiles": "O=C(NC1CCCC1)c1cccc(S(=O)(=O)N2CCCCC2)c1", "Potency": "inconclusive: 35.5 µM [inhibitor, partial curve]"},
      {"smiles": "COc1cc(O)oc1C=Nc1ccc(Cl)cc1", "activity change, negative = inhibition": "inactive: 9.03%"},
      {"smiles": "Cc1nn(Cc2ccccc2)c(C)c1NC(=O)c1noc2c1CCc1ccccc1-2", "Potency": "inconclusive: 35.5 µM [inhibitor, single point]"},
      {"smiles": "CCN(CCCc1ccccc1)CCCc1ccccc1", "Potency": "inactive"},
      {"smiles": "Cc1cc(=O)n2[nH]c(N)c(N=Nc3ccccc3F)c2n1", "Potency": "inconclusive: 35.5 µM [inhibitor, single point]"},
      {"smiles": "O=S(=O)(Cc1ccccc1)c1cnc2ccccc2n1", "Potency": "inconclusive: 35.5 µM [inhibitor, single point]"},
      {"smiles": "Cc1cc(N2CCN(S(=O)(=O)c3ccc(Cl)cc3)CC2)c2ccccc2n1", "Potency": "inconclusive: 31.6 µM [inhibitor, single point]"},
      {"smiles": "CC(C)Cc1cc(C(=O)NCc2cccnc2)no1", "Potency": "inconclusive: 0.0891 µM [inhibitor, full curve, poor fit]"},
      {"smiles": "Cc1ccc(NC2=C/C(=N/S(=O)(=O)c3cccs3)c3ccccc3C2=O)cc1", "Potency": "active: 3.55 µM"},
      {"smiles": "Cc1csc(NC(=S)Nc2cccc(Cl)c2)n1", "Potency": "inconclusive: 17.8 µM [inhibitor, single point]"},
      {"smiles": "Oc1ccc(/C(Cc2ccccn2)=N\\Nc2ccccc2)c(O)c1", "activity change, negative = inhibition": "inactive: -19.8%"},
      {"smiles": "O=C1C=C(O)CC(c2ccc(Cl)cc2)C1", "note": "(centres undefined)", "Potency": "inconclusive: 3.16 µM [inhibitor, single point]"},
      {"smiles": "CC(C)(C)C(=O)/C(=C/c1ccncc1)n1cncn1", "Potency": "inconclusive: 3.98 µM [inhibitor, single point]"},
      {"smiles": "CC(C)(Cl)C1Cc2cc3ccc(=O)oc3cc2O1", "note": "(centres undefined)", "activity change, negative = inhibition": "inactive: 5.24%"},
      {"smiles": "COc1ccc(N2CCN(C(=O)CCc3ccc(S(=O)(=O)NC(C)(C)C)cc3)CC2)cc1", "activity change, negative = inhibition": "inactive: -14.6% [at 9.22 µM]"},
      {"smiles": "O=S1(=O)C=C(Oc2ccc3ccccc3c2)c2ccccc21", "activity change, negative = inhibition": "inactive: -13.3%"},
      {"smiles": "Cc1ccc(C(=O)c2no[n+]([O-])c2C(=O)c2ccc(C)cc2)cc1", "Potency": "inconclusive: 35.5 µM [inhibitor, single point]"},
      {"smiles": "COc1cccc(C(=O)COc2ccccc2N2C(=O)C3C4C=CC(C4)C3C2=O)c1", "note": "(centres undefined)", "Potency": "inconclusive: 17.8 µM [activator, single point]"},
      {"smiles": "O=C(Nc1nc(-c2ccccc2)ns1)c1cccs1", "Potency": "inconclusive: 17.8 µM [inhibitor, single point]"},
      {"smiles": "CCN(CC)S(=O)(=O)c1cccc(-c2nnc(SCc3nc4ccccc4s3)o2)c1", "Potency": "inconclusive: 35.5 µM [inhibitor, single point]"},
      {"smiles": "Cc1ccc(-c2nnc(N3CCN(C(=O)Cn4c(=O)n(C)c5ccccc54)CC3)c3ccccc23)cc1", "Potency": "inconclusive: 35.5 µM [inhibitor, single point]"},
      {"smiles": "O=C(/C=C/c1ccc([N+](=O)[O-])cc1)Nc1ncc([N+](=O)[O-])s1", "Potency": "inconclusive: 7.94 µM [inhibitor, partial curve]"},
      {"smiles": "Cc1ccccc1OCC(O)Cn1nnc2ccccc21", "note": "(centres undefined)", "activity change, negative = inhibition": "inactive: -7.77%"},
      {"smiles": "CC[C@]1(O)C[C@@H]2CN(CCc3c([nH]c4ccccc34)[C@@](C(=O)OC)(c3cc4c(cc3OC)N(C)[C@H]3[C@@](O)(C(=O)OC)[C@H](OC(C)=O)[C@]5(CC)C=CCN6CC[C@]43[C@@H]65)C2)C1", "Potency": "inconclusive: 0.112 µM [inhibitor, full curve, poor fit]"},
      {"smiles": "COCCn1c(C)cc(C(=O)COc2nc3ccccc3nc2C)c1C", "Potency": "inconclusive: 35.5 µM [inhibitor, partial curve]"},
      {"smiles": "CCCOc1ccc(N2C(=O)CC(NCCNc3ccc(S(=O)(=O)CC)cc3)C2=O)cc1", "note": "(centres undefined)", "activity change, negative = inhibition": "inactive: 8.89%"},
      {"smiles": "O=C(NNC(=S)NC1CCCCC1)c1cccs1", "activity change, negative = inhibition": "inactive: 2.91%"},
      {"smiles": "CCOC(=O)c1c(NC(=O)CSc2nnc(N)s2)sc(C)c1-c1ccc(C)cc1", "Potency": "inconclusive: 5.62 µM [inhibitor, single point]"},
      {"smiles": "O=C(NC(Cc1ccccc1)c1ccc2c(c1)OCCCO2)c1ccc(F)cc1", "note": "(centres undefined)", "Potency": "inconclusive: 15.8 µM [inhibitor, single point]"},
      {"smiles": "COc1ccc(C(=O)COC(=O)C2CCCN2C(=O)C23CC4CC(CC(C4)C2)C3)cc1", "note": "(centres undefined)", "Potency": "inconclusive: 4.47 µM [activator, full curve]"},
      {"smiles": "Clc1ccc(Cn2ncc3c(NCc4cccnc4)ncnc32)cc1", "Potency": "inconclusive: 35.5 µM [inhibitor, partial curve]"},
      {"smiles": "Cc1ccc(-n2c(C)c([N+](=O)[O-])c3ccc(O)cc32)cc1", "Potency": "inconclusive: 1 µM [inhibitor, partial curve, poor fit]"},
      {"smiles": "CC(=O)Nc1cc(N2C(=O)CCC2=O)ccc1Cl", "activity change, negative = inhibition": "inactive: 5.76%"},
      {"smiles": "Cc1ccc(S(=O)(=O)C2C(=O)N(C)C3(C)CC2c2ccccc2O3)cc1C", "note": "(centres undefined)", "Potency": "inconclusive: 5.62 µM [inhibitor, single point]"},
      {"smiles": "Cc1ccc(-n2ncc(C(=O)Nc3cc(Cl)cc(Cl)c3)c2C2CCNCC2)cc1C", "Potency": "inconclusive: 35.5 µM [inhibitor, single point]"},
      {"smiles": "Cc1nc(Sc2ccc(Cl)cc2)c(C#N)c(C)c1[N+](=O)[O-]", "activity change, negative = inhibition": "inactive: 19.4% [at 9.22 µM]"},
      {"smiles": "Cc1[nH][nH]c(=O)c1C(c1c(C)[nH][nH]c1=O)c1cn(C)c2ccccc12", "activity change, negative = inhibition": "inactive: 14% [at 9.22 µM]"},
      {"smiles": "N#Cc1c(N2CCN(C(=O)c3ccccc3Cl)CC2)nc(-c2ccccc2)c2c1CCCC2", "Potency": "inconclusive: 10 µM [inhibitor, partial curve]"},
      {"smiles": "COc1ccc(NC(=O)Nc2cccc([N+](=O)[O-])c2)cc1Cl", "Potency": "inconclusive: 35.5 µM [inhibitor, single point]"},
      {"smiles": "Cc1ccc(NC(=O)CSc2n[nH]c(=O)n2C2CC2)cc1S(=O)(=O)N1CCOCC1", "Potency": "inconclusive: 3.55 µM [inhibitor, single point]"},
      {"smiles": "CCC(C)[C@H](NC(=O)N1CCC(C)CC1)C(=O)OC", "note": "(some centres undefined)", "activity change, negative = inhibition": "inactive: 0.94% [at 9.22 µM]"},
      {"smiles": "Cc1cc2c(c(=O)n1CCN(C)C)C(c1ccncc1)C(C#N)=C(N)O2", "note": "(centres undefined)", "activity change, negative = inhibition": "inactive: -3.58%"},
      {"smiles": "N#Cc1ccc(-c2ccco2)nc1SCC(=O)c1ccc(Cl)cc1", "activity change, negative = inhibition": "inactive: -16.8%"}
    ]}
  ]
}
